# PubChem BioAssay AID686943, Drosophila RNAi Screening Center – 2013
# Screen: 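Knockdowns that increase or decrease active ERK after insulin receptor stimulation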 (primary screen)
# Cells: Drosophila S2R+ haemocyte-like cells expressing YFP-tagged ERK (Rolled)
# Knock-down reagent: long dsRNA against Drosophila genes
# Conditions: insulin stimulation versus unstimulated cells; dose and duration not given
# Measurement: 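Per-plate z-scores of phospho-ERK immunostaining normalised to YFP-tagged ERK, measured with and without insulin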
# Direction: replicate 1, z-score of dpERK with insulin and replicate 2, z-score of dpERK with insulin: higher = more active ERK per ERK-YFP after insulin; replicate 1, z-score of dpERK under basal conditions: higher = more basal active ERK per ERK-YFP; replicate 1, z-score of ERK-YFP with insulin: higher = more YFP-tagged ERK signal
# The deposit covers about 23,000 reagents; shown is a random part of those with a known target gene and a result. 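Extra replicates exist only for a retested subset of genes; insulin dose and duration not given; both raised and lowered dpERK matter.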 Names joined by + are all predicted targets of the reagent. Reagent sequences are not shown. Not given: the amount of reagent, the time to read-out.
target gene,dsRNA,"replicate 1, z-score of dpERK with insulin","replicate 2, z-score of dpERK with insulin","replicate 1, z-score of dpERK under basal conditions","replicate 1, z-score of ERK-YFP with insulin"
CG4619 (GeneID 34321),DRSC02764,0.47,0.12,0.13,0.66
CG14220 (GeneID 32954),DRSC19577,-0.75,1.97,-0.95,1.97
CG10339 (GeneID 37854),DRSC04065,-0.13,0.25,-0.52,-0.14
Fpgs1 (GeneID 32212),DRSC19857,-1.22,0.03,1,0.25
CG14505 (GeneID 37098),DRSC06476,0.12,0.37,-0.38,0.09
Wbp2 (GeneID 39460),DRSC09821,1.02,1,-0.97,-1.12
mfr (GeneID 39016),DRSC10543,0.11,-0.15,-0.82,0.51
CG42560 + CG42559,DRSC21873,-0.06,0.4,-0.41,-0.44
Pex5 (GeneID 31141),DRSC18552,0.34,0.08,0.36,0.24
CG7142 (GeneID 42194),DRSC16204,-0.06,0.84,0.3,0.28
side (GeneID 43300),DRSC14523,3.18,1.13,-0.62,-1.35
side (GeneID 43300),DRSC14716,0.23,-0.13,0.5,0.49
side (GeneID 43300),DRSC14717,0.12,0,0.46,-0.45
side (GeneID 43300),DRSC14718,0.71,0,-1.02,-0.26
side (GeneID 43300),DRSC14721,0.57,0.16,-0.39,0.12
Nipped-B (GeneID 3355136),DRSC07815,-0.07,0.21,-2.2,1.43
AANATL2 (GeneID 33874),DRSC03227,-0.96,-0.7,0.16,1.37
CG12126 (GeneID 35805),DRSC06103,0.42,0.34,0.11,0.37
CG12662 (GeneID 31825),DRSC17865,2.53,0.41,0.05,-0.66
Smu1 (GeneID 42272),DRSC15803,-0.22,0.99,0.09,-0.29
enc (GeneID 44543),DRSC08716,0.03,0.47,-0.12,0.22
Pus1 (GeneID 42440),DRSC15548,1.1,0.02,0.93,-0.33
Ids (GeneID 38423),DRSC08222,0.69,0.12,0.8,0.22
Mlh1 (GeneID 35796),DRSC07473,0.44,0.17,0.56,0.41
CG31883 (GeneID 326169),DRSC02561,0.39,0.16,0.72,1.02
Boot (GeneID 35919),DRSC06412,0.88,0.3,-0.05,-0.14
CG9498 (GeneID 33885),DRSC03235,1.29,1.74,-0.4,-2.02
ERp44 (GeneID 32588),DRSC20215,-0.04,0.32,-0.29,0.34
Not10 (GeneID 41552),DRSC14129,-0.68,-0.39,-0.77,1.06
Lcch3 (GeneID 32554),DRSC22175,0.43,-0.48,-1.28,-0.55
Cyp4d8 (GeneID 38841),DRSC11131,-0.67,-0.11,-0.2,-0.68
Vinc (GeneID 31201),DRSC18728,-0.02,-0.33,-1.04,-3.56
Zmynd10 (GeneID 39481),DRSC09826,-0.27,0,0.23,-0.38
CG7714 (GeneID 42250),DRSC16300,0.97,0.22,-0.88,-0.5
Arp6 (GeneID 32514),DRSC19326,0.15,0,0.52,0.2
CstF64 (GeneID 42239),DRSC16616,2.09,0.09,1.21,-2.41
CG13088 (GeneID 34180),DRSC02192,0.24,0.08,0.28,-2.06
CG4972 (GeneID 34388),DRSC02798,0.42,0.9,0.51,0.44
nito (GeneID 35756),DRSC05943,0.75,1.8,2.43,-1.86
CG32457 (GeneID 318040),DRSC11596,1.04,0.91,-0.4,0.05
CG32457 (GeneID 318040),DRSC21722,-0.57,1.24,-0.8,1.12
CG10845 (GeneID 42978),DRSC14272,-0.41,-0.56,-0.11,0.05
CG18661 (GeneID 50438),DRSC02690,0.09,-0.47,-0.35,0.63
Ufsp1 (GeneID 246489),DRSC04958,0.53,0.59,-0.07,-0.71
CG5618 (GeneID 40241),DRSC11780,-0.05,-0.22,-0.73,0.24
CG15202 (GeneID 32052),DRSC19649,0.05,0.61,0.85,-0.03
BEAF-32 + CG42254 (retired record),DRSC05503,-0.77,-0.53,-0.71,0.05
CG11313 (GeneID 43646),DRSC14295,0.52,-0.21,-0.27,0.69
Obp22a (GeneID 246672),DRSC00088,0.12,0.19,0.63,-0.79
4E-T (GeneID 43836),DRSC17201,-1,-0.8,-1.63,0.3
4E-T (GeneID 43836),DRSC17208,-0.57,-0.36,0.24,0.69
CG7094 (GeneID 35065),DRSC03005,0.42,0.4,0.31,-0.12
CG13561 (GeneID 37765),DRSC04199,-0.58,-0.02,0,0.9
CG10405 (GeneID 41996),DRSC14238,0.4,0.41,0.48,0.08
Got1 (GeneID 36782),DRSC07177,0.02,0.21,1.64,-0.18
Con (GeneID 38590),DRSC08652,0.51,-0.15,0.55,-0.74
Men (GeneID 47173),DRSC12924,0.36,0.16,0.92,0.42
Men (GeneID 47173),DRSC16738,1.23,1.44,-0.55,0.43
Men (GeneID 47173),DRSC22694,-0.65,-0.91,-3.72,1.1
